The supplement of paper PMC4604168 (melanoma cell lines)
The list shows a part of the results. Repeats are few or missing, and single values can be far off.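 The apoptosis fraction was the count of cleaved-PARP antibody-stained nuclei relative to all DNA-stained nuclei, imaged in 1,536-well plates. Screening doses were set so most cells survived, and baseline and induced cleaved-PARP levels vary greatly across cell lines.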

Each compound was assayed on MEL-HO (assay: cleaved PARP positive nuclei fraction relative to DMSO control; melanoma cells; higher = more apoptosis). Details: library dose: low library concentration; 72 h.
`CC1(C)CCC(c2ccc(Cl)cc2)=C(CN2CCN(c3ccc(C(=O)NS(=O)(=O)c4ccc(N[C@H](CCN5CCOCC5)CSc5ccccc5)c(S(=O)(=O)C(F)(F)F)c4)cc3)CC2)C1` + CNC(=O)c1cc(Oc2ccc(NC(=O)Nc3ccc(Cl)c(C(F)(F)F)c3)cc2)ccn1 [sorafenib] (first compound 0.4 µM, partner dose 0.4 µM) was tested, and the “cleaved PARP positive nuclei fraction” value was 87.8%. For `NC(=O)c1ccc(N(C(N)=O)c2c(F)cccc2F)nc1-c1ccc(F)cc1F` + COc1ccc(C2=N[C@@H](c3ccc(Cl)cc3)[C@@H](c3ccc(Cl)cc3)N2C(=O)N2CCNC(=O)C2)c(OC(C)C)c1 [Nutlin-3] (first compound 0.4 µM, partner dose 0.1 µM), the “cleaved PARP positive nuclei fraction” value was 58.3%. With `C[C@]1(O)C[C@@H](c2nc(-c3ccc4ccc(-c5ccccc5)nc4c3)c3c(N)nccn32)C1` + Cn1c(=O)n(-c2ccc(C(C)(C)C#N)cc2)c2c3cc(-c4cnc5ccccc5c4)ccc3ncc21 [NVP-BEZ235] (first compound 0.4 µM, partner dose 0.004 µM) the “cleaved PARP positive nuclei fraction” value was 114%. `CC1(C)CCC(c2ccc(Cl)cc2)=C(CN2CCN(c3ccc(C(=O)NS(=O)(=O)c4ccc(N[C@H](CCN5CCOCC5)CSc5ccccc5)c(S(=O)(=O)C(F)(F)F)c4)cc3)CC2)C1` + Nc1ncn([C@H]2C[C@H](O)[C@@H](CO)O2)c(=O)n1 [decitabine] (first compound 0.4 µM, partner dose 0.1 µM) was tested, and the “cleaved PARP positive nuclei fraction” value was 277%.
